Results are given in words; binding and its absence hold for the method and conditions named. Binding seen in cells or lysates may run through a third protein. Some entries that bind do so weakly or less than the wild type. Sequences can lack the tags named with a protein.
Biological target: GST-RhoA (p.Q63L) (UniProt P61586)
Assay: pull-down; GST binding assay; GST-RhoA proteins as bait, GFP-tagged ARHGAP10 as prey; input and bound proteins on immunoblots, densitometry with Odyssey Clx; three independent experiments

Chains of the proteins cited; added tags and fusions are not shown. Lines headed by an entry give the natural chain unless they say otherwise; changes in a name come on top.
UniProt P61586: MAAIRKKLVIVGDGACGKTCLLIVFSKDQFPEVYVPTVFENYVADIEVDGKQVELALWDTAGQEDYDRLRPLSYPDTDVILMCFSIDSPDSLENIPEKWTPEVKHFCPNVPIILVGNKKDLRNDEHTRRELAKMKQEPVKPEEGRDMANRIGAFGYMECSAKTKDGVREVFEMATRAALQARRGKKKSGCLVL

B1: GFP-tagged human ARHGAP10 full-length wild-type (protein, UniProt A1A4S6 1-786)
chain: MGLQPLEFSDCYLDSPWFRERIRAHEAELERTNKFIKELIKDGKNLIAATKSLSVAQRKFAHSLRDFKFEFIGDAVTDDERCIDASLREFSNFLKNLEEQREIMALSVTETLIKPLEKFRKEQLGAVKEEKKKFDKETEKNYSLIDKHLNLSAKKKDSHLQEADIQVEQNRQHFYELSLEYVCKLQEIQERKKFEFVEPMLSFFQGMFTFYHQGHELAKDFNHYKMELQINIQNTRNRFEGTRSEVEELMNKIRQNPKDHKRASQFTAEGYLYVQEKRPAPFGSSWVKHYCMYRKAAKKFNMIPFEHRSGGKLGDGEVFFLKECTKRHTDSIDRRFCFDIEAADRPGVSLTMQAFSEEERKQWLEALGGKEALSHSFNTAIIPRPEGNAQLDKMGFTIIRKCISAVETRGINDQGLYRVVGVSSKVQRLLSMLMDVKTCNEVDLENSADWEVKTITSALKQYLRSLPEPLMTYELHGDFIVPAKSGSPESRVNAIHFLVHKLPEKNKEMLDILVKHLTNVSNHSKQNLMTVANLGVVFGPTLMRPQEETVAALMDLKFQNIVVEILIENHEKIFRTPPDTTFPEPTCLSASPPNAPPRQSKRQGQRTKRPVAVYNLCLELEDGDNPYPSKEDTPTSSLDSLSSPSPVTTAVPGPPGPDKNHLLADGGSFGDWASTIPGQTRSSMVQWLNPQSPTTTSSNSAVTPLSPGSSPFPFSPPATVADKPPESIRSRKARAVYPCEAEHSSELSFEIGAIFEDVQTSREPGWLEGTLNGKRGLIPQNYVKLL
B1 was tested, and the binding was “binds”.
